This is an account of results in publication PMC12041376.

By UniProt entry, the sequences of proteins in these tests, tags left out.
UniProt Q92993: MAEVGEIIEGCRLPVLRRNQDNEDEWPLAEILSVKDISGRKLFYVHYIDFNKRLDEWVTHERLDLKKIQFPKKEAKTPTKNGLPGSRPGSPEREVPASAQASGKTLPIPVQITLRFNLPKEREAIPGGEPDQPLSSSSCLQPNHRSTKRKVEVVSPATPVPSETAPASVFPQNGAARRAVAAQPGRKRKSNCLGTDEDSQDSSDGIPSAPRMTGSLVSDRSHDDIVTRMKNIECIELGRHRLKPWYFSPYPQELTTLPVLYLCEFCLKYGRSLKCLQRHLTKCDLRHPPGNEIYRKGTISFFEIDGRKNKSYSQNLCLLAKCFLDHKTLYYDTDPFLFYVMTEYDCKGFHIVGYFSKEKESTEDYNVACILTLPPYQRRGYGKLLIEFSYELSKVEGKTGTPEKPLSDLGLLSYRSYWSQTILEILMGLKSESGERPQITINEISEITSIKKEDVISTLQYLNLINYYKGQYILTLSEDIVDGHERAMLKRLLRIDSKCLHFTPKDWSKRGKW
UniProt Q69YN4: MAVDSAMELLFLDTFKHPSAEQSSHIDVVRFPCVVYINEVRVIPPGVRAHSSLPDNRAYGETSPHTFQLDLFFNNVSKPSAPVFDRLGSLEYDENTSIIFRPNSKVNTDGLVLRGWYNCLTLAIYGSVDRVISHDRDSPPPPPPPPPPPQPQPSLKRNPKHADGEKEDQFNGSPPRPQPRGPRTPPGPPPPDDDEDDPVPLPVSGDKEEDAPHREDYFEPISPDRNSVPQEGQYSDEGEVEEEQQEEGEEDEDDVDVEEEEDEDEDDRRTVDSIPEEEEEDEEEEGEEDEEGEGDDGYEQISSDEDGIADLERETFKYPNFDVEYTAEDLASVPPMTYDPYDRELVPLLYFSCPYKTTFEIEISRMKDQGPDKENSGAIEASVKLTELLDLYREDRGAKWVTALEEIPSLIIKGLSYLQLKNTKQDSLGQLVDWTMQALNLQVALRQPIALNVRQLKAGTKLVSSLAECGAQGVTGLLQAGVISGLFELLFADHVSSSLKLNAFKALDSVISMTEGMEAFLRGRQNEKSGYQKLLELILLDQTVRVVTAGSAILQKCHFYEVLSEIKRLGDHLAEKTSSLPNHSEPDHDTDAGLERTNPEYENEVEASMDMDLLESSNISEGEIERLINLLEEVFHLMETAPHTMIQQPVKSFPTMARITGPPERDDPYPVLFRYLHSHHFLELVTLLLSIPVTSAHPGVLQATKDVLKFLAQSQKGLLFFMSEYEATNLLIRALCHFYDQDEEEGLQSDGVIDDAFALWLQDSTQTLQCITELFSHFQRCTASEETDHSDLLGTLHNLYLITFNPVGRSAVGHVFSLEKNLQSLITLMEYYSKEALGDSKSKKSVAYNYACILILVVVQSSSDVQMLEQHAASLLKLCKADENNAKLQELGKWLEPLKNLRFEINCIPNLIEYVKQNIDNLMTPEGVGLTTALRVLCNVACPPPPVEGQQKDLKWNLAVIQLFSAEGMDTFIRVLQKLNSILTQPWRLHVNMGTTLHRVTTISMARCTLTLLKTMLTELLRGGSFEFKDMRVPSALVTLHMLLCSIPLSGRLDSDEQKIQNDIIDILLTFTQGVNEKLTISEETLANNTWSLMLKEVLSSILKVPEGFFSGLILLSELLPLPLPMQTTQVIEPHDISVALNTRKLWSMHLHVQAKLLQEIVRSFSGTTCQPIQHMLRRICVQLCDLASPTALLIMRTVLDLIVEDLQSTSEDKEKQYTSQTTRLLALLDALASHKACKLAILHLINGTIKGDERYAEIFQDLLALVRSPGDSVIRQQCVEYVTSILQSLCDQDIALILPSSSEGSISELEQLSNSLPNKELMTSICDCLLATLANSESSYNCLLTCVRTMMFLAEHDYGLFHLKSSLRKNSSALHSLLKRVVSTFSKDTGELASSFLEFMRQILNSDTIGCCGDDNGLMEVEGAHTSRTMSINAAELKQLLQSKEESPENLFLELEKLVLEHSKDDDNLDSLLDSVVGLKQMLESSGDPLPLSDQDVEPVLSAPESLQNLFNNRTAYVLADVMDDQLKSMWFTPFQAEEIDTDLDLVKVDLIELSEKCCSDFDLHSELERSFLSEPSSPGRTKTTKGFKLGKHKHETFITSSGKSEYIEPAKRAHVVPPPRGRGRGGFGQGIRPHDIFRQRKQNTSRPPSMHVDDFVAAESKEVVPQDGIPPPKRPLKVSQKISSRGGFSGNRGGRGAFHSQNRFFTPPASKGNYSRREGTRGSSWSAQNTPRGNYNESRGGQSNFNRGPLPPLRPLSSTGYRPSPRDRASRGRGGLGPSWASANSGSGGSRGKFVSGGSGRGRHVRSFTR

No constants are given. Whether binding was seen depends on the method and setting. For part of these data: Binding seen in cells or lysates may run through a third protein. Some results given as binding are weak or reduced against the parent protein; the word gives no strength.

One assay concerns the target GST-TIP60 fusion protein (UniProt Q92993). Kind of assay: pull-down; about 100 µg GST-TIP60 immobilised on 50 µL glutathione agarose (1 h, 4 °C), incubated with 100 µg Flag-KIAA1429 fusion protein and GST at 4 °C overnight; eluted with 10 mM glutathione pH 8.0; Western blot; both purified. (In general: A western blot detects proteins with antibodies after separation by electrophoresis.)

Assay [1] addresses TIP60 (endogenous) (human (endogenous in HCC cells)) (UniProt Q92993). The experiment in a line: co-IP; endogenous proteins in HCC cell lysates (IP lysis buffer, pre-cleared with protein A/G beads); protein A/G beads with anti-TIP60, anti-KIAA1429 or anti-IgG, 4 °C overnight; Western blot.
For the next assay, the target named is SFB-Flag-TIP60 (UniProt Q92993). The experiment in a line: co-IP; 293T cells transfected with KIAA1429 and SFB-Flag-TIP60 plasmids; IP lysis buffer; immunoprecipitation with anti-SFB agarose beads; Western blot for KIAA1429 and Flag.

For the substance “Flag-KIAA1429 fusion protein (from UniProt Q69YN4 1-1812)”, the binding entry with GST-TIP60 fusion protein was “binds”.

Take “KIAA1429 (endogenous) (from UniProt Q69YN4 1-1812)”: in assay [1], the binding entry was “binds”. For “KIAA1429 (expressed in 293T cells) (from UniProt Q69YN4 1-1812)”, the binding entry in the assay with SFB-Flag-TIP60 is “binds”.
